Reference: PubChem BioAssay AID2685 (National Center for Advancing Translational Sciences (NCATS), 2010)
This is one part of the list. Further columns of the screen follow, without active or inactive calls. Compounds called inactive in the main read-out are mostly missing here. Words in brackets tell the shape of the fitted curve; partial curves, single points and poor fits give uncertain potencies.

Assay: qHTS Assay for Lipid Storage Modulators in Drosophila S3 Cells;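 for cell number change: cells counted by Cell Tracker Red CMTPX staining in the red channel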
Settings: BODIPY lipid droplet fluorescence, 18-24 h; for cell number change: measured here: cell count max response, cells fed with added oleic acid
How it was run: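 Drosophila S3 cells got compounds at several concentrations plus oleic acid (400 uM solution). Laser-scanning cytometry with 488 nm excitation read lipid droplets at 500-530 nm and cells at 575-640 nm. Percent activity was relative to 20 uM Triacsin C.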

[1] = measured here: cell number channel AC50, cells fed with added oleic acid
[2] = measured here: lipid fluorescence (Fed channel) AC50, cells fed with added oleic acid

Structure (SMILES) | cell number change [%] | AC50 [1] | AC50 [2]
Cc1ccc(CNC(=O)c2ccccc2N(C)S(C)(=O)=O)cc1 | 171 | 29.1 µM [rising, partial curve] | 29.1 µM [rising, partial curve]
Cc1ccc(NC(=O)CN2CCN(C)CC2)cc1Br | 3.16 | – | 18.4 µM [rising, single point]
COc1cccc(-c2nc(CS(=O)CC(=O)NCc3ccccc3)c(C)o2)c1 (configuration not stated) | 9.59 | 6.51 µM [rising, single point] | –
CCOC(=O)c1ccc(NC(=O)CSc2nnc(CNC(=O)c3ccccc3F)o2)cc1 | 35.2 | 1.03 µM [rising, full curve] | 0.731 µM [rising, single point]
c1ccc2sc(C3CCN(Cc4nnnn4Cc4ccc5c(c4)OCO5)CC3)nc2c1 | -33.4 | 18.4 µM [falling, single point] | 29.1 µM [falling, single point]
COc1ccc(NC(=O)Nc2ccc(C(=O)N3CCOCC3)cc2)cc1 | 131 | 13 µM [rising, partial curve] | 20.6 µM [rising, single point]
CSCCC(NC(N)=O)C(=O)NCc1ccccc1Cl (configuration not stated) | 21.2 | – | –
O=S(=O)(c1ccccc1)c1nc(-c2ccco2)oc1NCc1ccccc1 | – | 2.06 µM [rising, partial curve] | 2.59 µM [rising, partial curve]
Cc1ccc(C)c(CN2CCC(CNC(=O)Nc3ccc(Cl)cc3)CC2)c1 | -45.7 | 23.1 µM [falling, single point] | 29.1 µM [falling, single point]
Cc1ccc(CNC(=O)CCC2CCCN(Cc3ccc4cccc(F)c4n3)C2)o1 (configuration not stated) | 22.8 | – | 3.26 µM [rising, full curve]
COc1cc(C(=S)N2CCOCC2)ccc1OS(=O)(=O)c1ccc(Cl)cc1 | 14.5 | – | –
COc1ccccc1/C=C/C=N/NC(=O)c1cccs1 | 36.2 | 29.1 µM [rising, single point] | 29.1 µM [rising, single point]
COc1ccc(S(=O)(=O)Nc2ccccc2OC)cc1NC(=O)Cc1cccs1 | 29.7 | – | 2.59 µM [rising, single point]
Cc1ccc(S(=O)(=O)NC2(C(=O)O)CCCCC2)cc1 | -41.3 | 0.0366 µM [falling, full curve, poor fit] | 0.82 µM [falling, full curve]
COc1ccc(O)c(/C=c2/sc3nc4cc(C)c(C)cc4n3c2=O)c1 | -13.1 | – | 0.58 µM [rising, full curve, poor fit]
CCOC(=O)Cc1csc(NC(NC(=O)CC)(C(F)(F)F)C(F)(F)F)n1 | 5.17 | – | 0.731 µM [falling, single point]
O=S(=O)(c1ccc(S(=O)(=O)N2CCCC2)cc1)N1CCCCC1 | -1.28 | – | 0.116 µM [falling, full curve, poor fit]
C=CCN1C(=O)C(O)(CC(=O)c2ccc(Cl)cc2)c2ccccc21 (configuration not stated) | -9.37 | – | 0.00461 µM [falling, full curve, poor fit]
COc1cc(C(=O)Nc2ccc3c(c2)ncn3C(C)(C)C)cc(OC)c1OC | -4.21 | – | 29.1 µM [rising, single point]

Taken from above:
COc1ccc(NC(=O)Nc2ccc(C(=O)N3CCOCC3)cc2)cc1 | cell number change [%]: 131
Cc1ccc(CNC(=O)c2ccccc2N(C)S(C)(=O)=O)cc1 | AC50 [2]: 29.1 µM [rising, partial curve]

Next part

Structure (SMILES) | cell number change [%] | AC50 [1] | AC50 [2]
CCOc1cc(/C=C(\CC(=O)O)c2nc3ccccc3s2)ccc1OC | -95.1 | 29.1 µM [falling, single point] | 18.4 µM [falling, partial curve]
Cc1cc(N2CCCN(C)CC2)nc2cc(Cl)ccc12 | -20.1 | – | 29.1 µM [rising, single point]
c1ccc(C(c2ccccc2)c2nc(-c3cccnc3)no2)cc1 | -10.6 | – | 2.06 µM [falling, partial curve]
NC(=O)CC(NC(=O)Cc1ccc(Cl)cc1)c1ccc(NC2CCCCCC2)c([N+](=O)[O-])c1 (configuration not stated) | -19.2 | – | 9.2 µM [falling, single point]
CCOC(=O)c1c(NC(=O)C(C)Sc2nnc(C)c(=O)[nH]2)sc2c1CCCC2 (configuration not stated) | – | 2.59 µM [rising, single point] | –
COc1nccnc1NS(=O)(=O)c1ccc(N/C=C2\CCCCC2=O)cc1 | -21.3 | 0.058 µM [falling, full curve] | 0.0164 µM [falling, full curve, poor fit]
CCOC(=O)/C(=N/O)C1=NC(C)(C)Cc2cc(C)c(C)cc21 | 17.2 | – | 25.9 µM [rising, single point]
Cc1ccccc1NC(=O)CNC(=O)c1ccc(C(F)(F)F)cc1 | -2.08 | – | 29.1 µM [rising, single point]
Cc1cccc(NC(=O)CN(CC2CCCO2)C(=O)c2oc3ccc(F)cc3c2C)c1C (configuration not stated) | -3.85 | – | 4.11 µM [falling, full curve]
CCCS(=O)(=O)N1CCn2c(nc3ccccc32)C1 | -0.468 | – | –
O=C(Nc1nc(=O)c2ccccc2s1)c1ccc(F)cc1 | -34.9 | 13 µM [falling, partial curve] | 23.1 µM [falling, partial curve]
CS(=O)(=O)N(CC(=O)Nc1ccc(S(=O)(=O)N2CCCC2)cc1)c1cccc(F)c1 | -24.7 | – | 14.6 µM [falling, partial curve, poor fit]
CCCC1(c2ccccc2)NC(=O)N(CC(=O)Nc2sc(-c3ccccc3)cc2C(=O)OCC)C1=O (configuration not stated) | – | – | 29.1 µM [falling, single point]
CSCC[C@H](NC(=O)[C@@H]1Cc2ccccc2CN1)C(=O)Nc1ccc2c(c1)OCO2 | 1.98 | – | –
COC(=O)c1c(N)sc2c1CCN(c1ncc(C(F)(F)F)cc1Cl)C2 | -59.3 | 29.1 µM [falling, single point] | –
CC(=O)N1CCc2cc(S(=O)(=O)NCCN3CCC(C)CC3)ccc21 | -21.9 | 0.184 µM [falling, full curve, poor fit] | 0.0058 µM [falling, full curve, poor fit]
O=C(COc1ccc2ccccc2c1)Nc1cccc2c1C(=O)NC2=O | 37.3 | 23.1 µM [rising, single point] | 29.1 µM [rising, single point]
Oc1cccc(/C=N/Nc2ccc(Cl)nn2)c1O | 116 | 29.1 µM [rising, partial curve, poor fit] | 10.3 µM [rising, partial curve]
Cc1ccc2[nH]c(=O)c(CN(CC3CCCO3)C(=O)c3ccncc3)cc2c1 (configuration not stated) | 145 | 20.6 µM [rising, partial curve] | 6.51 µM [rising, single point]

An excerpt of these results, tab-delimited.
Structure (SMILES)	cell number change [%]	AC50 [1]	AC50 [2]
CCOC(=O)/C(=N/O)C1=NC(C)(C)Cc2cc(C)c(C)cc21	17.2	–	25.9 µM [rising, single point]
Cc1ccccc1NC(=O)CNC(=O)c1ccc(C(F)(F)F)cc1	-2.08	–	29.1 µM [rising, single point]

The listing continues:

Structure (SMILES) | cell number change [%] | AC50 [1] | AC50 [2]
Cc1cc(OCC(=O)N2CCN(c3ccccn3)CC2)c(C)cc1Br | 6.45 | – | 1.46 µM [rising, partial curve]
CN(C(=O)COC(=O)/C=C/c1ccc(Cl)c(Cl)c1)c1c(N)n(Cc2ccccc2)c(=O)[nH]c1=O | 5.39 | 0.731 µM [falling, single point] | –
O=C(C(=O)N1CCCC1CO)N1CCCC1CO (configuration not stated) | -6.32 | – | –
CC(C)C(NC(=O)c1ccc(Cl)cc1)C(=O)NCC1CCCO1 (configuration not stated) | 20.6 | 1.64 µM [rising, partial curve, poor fit] | –
COc1ccccc1CNC(=O)Cn1cnnn1 | 23.4 | – | 1.16 µM [falling, partial curve]
O=C(NCCC1CCCCN1S(=O)(=O)c1ccccc1)C(=O)NCC1CCCO1 (configuration not stated) | – | – | 6.51 µM [falling, single point]
COc1ccc(N(C(=O)c2ccncc2)S(=O)(=O)c2cccs2)cc1 | 0.966 | – | –
COc1ccc(CN2CC(C(=O)N3CCOCC3)CC2=O)cc1 (configuration not stated) | -23.6 | 0.651 µM [falling, full curve, poor fit] | 5.8 µM [falling, full curve]
COC(=O)c1[nH]c2ccc(F)cc2c1NS(=O)(=O)c1ccc(F)c(C)c1 | 4.28 | – | 16.4 µM [rising, partial curve]
Cc1ccc(C(CNS(=O)(=O)c2ccc(Br)cc2)N2CCN(C)CC2)cc1 (configuration not stated) | -15.7 | 3.26 µM [falling, single point] | 5.8 µM [falling, full curve, poor fit]
O=C(CCNC(=O)c1ccc([N+](=O)[O-])cc1)N/N=C/c1ccc(F)cc1 | -53 | – | –
Cc1cc(C)c(S(=O)(=O)c2ccc(F)cc2C)c(=O)[nH]1 | -12.7 | – | –
CCc1cc(=O)oc2cc(OCC(=O)NCCCn3ccnc3)c(Cl)cc12 | -20 | – | –
N=c1c2c3c(sc2nc2n1CCC2)CCCC3 | -9.35 | – | –
O=C1C2ON(c3ccc(Br)cc3)C(c3cccnc3)C2C(=O)N1C1CCCCC1 (configuration not stated) | – | 0.461 µM [rising, full curve, poor fit] | 0.92 µM [rising, full curve, poor fit]
CN1CCN(C(=O)CCn2nc(-c3ccccc3)c3ccccc3c2=O)CC1 | 0.388 | – | 25.9 µM [rising, single point]
CSc1scc2c1-c1nc(SCC(=O)C(C)(C)C)ncc1CC2 | -52.8 | 5.8 µM [falling, full curve] | –
CCN1CCN(C(=O)CCN2C(=O)c3ccccc3C2=O)CC1 | 13 | – | –
O=C(Cn1nc(C(=O)O)c2ccccc2c1=O)Nc1cccc(Br)c1 | 1.32 | 0.0058 µM [rising, full curve, poor fit] | 1 µM [falling, full curve]
